# Percent effect of library compounds

By UniProt entry, the sequences of proteins in these tests, tags left out.
UniProt P9WPC5, whole entry: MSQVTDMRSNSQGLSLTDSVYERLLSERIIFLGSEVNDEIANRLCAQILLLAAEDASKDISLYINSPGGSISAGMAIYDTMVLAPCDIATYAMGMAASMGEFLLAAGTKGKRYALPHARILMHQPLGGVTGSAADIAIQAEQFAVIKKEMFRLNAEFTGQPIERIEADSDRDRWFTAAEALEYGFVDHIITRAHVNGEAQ
UniProt P9WPC3, whole entry partner: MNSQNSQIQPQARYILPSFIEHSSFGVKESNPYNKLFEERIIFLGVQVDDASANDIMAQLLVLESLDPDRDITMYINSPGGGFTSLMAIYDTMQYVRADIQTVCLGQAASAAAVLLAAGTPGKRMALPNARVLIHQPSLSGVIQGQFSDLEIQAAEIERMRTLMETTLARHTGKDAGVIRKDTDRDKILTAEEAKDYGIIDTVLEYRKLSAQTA

Data taken from ChEMBL document CHEMBL3988442, “University of Dundee, Small-Polar-MMV Screening Library” (2021).

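ClpP1P2, Mycobacterium tuberculosis (UniProt P9WPC5 and UniProt P9WPC3). Protease assay of ClpP1P2, read by the AMC dye that it sets free. Tested at 50 µM. Higher reads as stronger inhibition, judged from the few compounds that gave an IC50. Most other retested compounds had strongly negative values. Size under these conditions: about 69,000 compounds, about 10 of them at 50% or above in at least one test.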

Values are the deposited “Percent Effect”, in %.
The controls that fix the scale are not given in the record; negative values are as filed.
This is an unselected part of the compounds tested.

- Cc1ccc(C(=O)NC2CCN(C)CC2)cc1N(C)S(C)(=O)=O : -9.318%
- COC(=O)Nc1cccc(C(=O)N(C)Cc2cccc(O)c2)c1 : 4.219%
- CN(Cc1cc2n(n1)CCCN(C(=O)N1CCCC1)C2)Cc1nccs1 : -0.4116%
- Cc1cc(F)c2c(c1)CCCN2Cc1nc2c(cnn2C)c(=O)[nH]1 : 3.255%
- CC(c1cccc(-c2nccn2CCc2cn[nH]c2)c1)N(C)C (stereo not shown) : 3.798%
- O=C(Cn1ccc2c(Cl)cccc21)Nc1nc[nH]n1 : -20.95%
- CCN(CC)CCNC(=O)CCc1c(C)nn(-c2ccc(Cl)cc2)c1C : -18.48%
- O=C(C1CCOC1)N1CCc2ncc(CNc3ccccn3)n2CC1 (stereo not shown) : 3.398%
- COc1ccccc1CCN(C)Cc1nc(N)nc(N(C)C)n1 : 2.063%
- O=C(CCNC(=O)NC1CC1)NCc1ccccc1 : -0.5756%
- CC(C)[C@H]1CN(CCCO)C[C@@H]1NC(=O)CCS(C)(=O)=O : -9.351%
- Cc1csc(N2CCCN(C(=O)c3csc(C)n3)CC2)n1 : -2.308%
- CCc1ccc(C(C)NC(=O)CCc2nc(-c3nnc[nH]3)no2)cc1 (stereo not shown) : -4.632%
- Cc1nc(CN2CCCC(N(C)CCCc3ccccc3)C2)no1 (stereo not shown) : -5.257%
- Cc1cnn(CCC(=O)N2CCN(C(=O)C3CC3)[C@@H]3CS(=O)(=O)C[C@@H]32)c1 : -8.507%
- Cc1cc(CN(C)C(=O)NCC(C)N2CCc3ccccc32)no1 (stereo not shown) : 7.502%
- Cc1nc(Nc2cnccn2)cc(C2CCCN2C2CCOCC2)n1 (stereo not shown) : -0.0936%
- COCCC(=O)N1CCC(NC(=O)c2cscc2C)CC1 : -1.465%

For reference, 2 entries once more:

{"smiles": "O=C(CCNC(=O)NC1CC1)NCc1ccccc1", "percent effect": -0.5756}
{"smiles": "COC(=O)Nc1cccc(C(=O)N(C)Cc2cccc(O)c2)c1", "percent effect": 4.219}